{"source": "PubChem BioAssay AID504808 (Drosophila RNAi Screening Center, 2011)", "aim": "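Genes whose loss lifts activity of an E2F-responsive reporter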 (primary screen)", "cell system": "Drosophila S2 cells", "reagent": "long dsRNA against Drosophila genes", "measurement": "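Firefly luciferase driven by E2F sites, normalised to Renilla luciferase on the same minimal promoter, measured by plate reader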", "scale": "E2F firefly: higher = more E2F reporter activity; Renilla normaliser: higher = more normaliser reporter signal", "active means": "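Called active if the normalised E2F reporter went up by over 50%; the cutoff is arbitrary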", "note": "In all, the deposit lists about 21,000 reagents; shown is a random part of those with a known target gene and a result. Of all reagents, 18 (0.084%) are marked active. 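Raw counts without plate normalisation, one of two replicates; the ratio scores behind the calls were not deposited.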 Names joined by + are all predicted targets of the reagent. No sequences are given here. The record does not give: the amount of reagent, the time to read-out."}
{"Gene": "Bulli (GeneID 38734)", "PubChem SID": "SID104190766", "E2F firefly, rep 1": 1.05e5, "Renilla normaliser, rep 1": 3993, "call": "inactive"}
{"Gene": "COX6CL (GeneID 318868)", "PubChem SID": "SID104180687", "E2F firefly, rep 1": 1.37e5, "Renilla normaliser, rep 1": 5272, "call": "inactive"}
{"Gene": "brat (GeneID 35197)", "PubChem SID": "SID104183289", "E2F firefly, rep 1": 60345, "Renilla normaliser, rep 1": 3368, "call": "inactive"}
{"Gene": "slim (GeneID 37121)", "PubChem SID": "SID104186713", "E2F firefly, rep 1": 81729, "Renilla normaliser, rep 1": 4091, "call": "inactive"}
{"Gene": "CG34001 (GeneID 3885640)", "PubChem SID": "SID104188834", "E2F firefly, rep 1": 1.37e5, "Renilla normaliser, rep 1": 5077, "call": "inactive"}
{"Gene": "CG15653 (GeneID 37388)", "PubChem SID": "SID104184036", "E2F firefly, rep 1": 1.02e5, "Renilla normaliser, rep 1": 3555, "call": "inactive"}
{"Gene": "ASPP (GeneID 37422)", "PubChem SID": "SID104184097", "E2F firefly, rep 1": 75472, "Renilla normaliser, rep 1": 3841, "call": "inactive"}
{"Gene": "CG30384 (GeneID 246584)", "PubChem SID": "SID104185824", "E2F firefly, rep 1": 1.56e5, "Renilla normaliser, rep 1": 5070, "call": "inactive"}
{"Gene": "Jon65Aiii (GeneID 38683)", "PubChem SID": "SID104190441", "E2F firefly, rep 1": 81729, "Renilla normaliser, rep 1": 3564, "call": "inactive"}
{"Gene": "Alg14 (GeneID 32479)", "PubChem SID": "SID104199775", "E2F firefly, rep 1": 1.50e5, "Renilla normaliser, rep 1": 6220, "call": "inactive"}
{"Gene": "geko (GeneID 50263)", "PubChem SID": "SID104189836", "E2F firefly, rep 1": 1.54e5, "Renilla normaliser, rep 1": 9070, "call": "inactive"}
{"Gene": "geko (GeneID 50263)", "PubChem SID": "SID104189837", "E2F firefly, rep 1": 1.71e5, "Renilla normaliser, rep 1": 8857, "call": "inactive"}
{"Gene": "sca (GeneID 36411)", "PubChem SID": "SID104187469", "E2F firefly, rep 1": 95064, "Renilla normaliser, rep 1": 4167, "call": "inactive"}
{"Gene": "a6 (GeneID 31127)", "PubChem SID": "SID104198525", "E2F firefly, rep 1": 1706, "Renilla normaliser, rep 1": 1044, "call": "inactive"}
{"Gene": "Sodh2 (GeneID 41313)", "PubChem SID": "SID104196657", "E2F firefly, rep 1": 1.23e5, "Renilla normaliser, rep 1": 5176, "call": "inactive"}
{"Gene": "CG8149 (GeneID 41137)", "PubChem SID": "SID104196183", "E2F firefly, rep 1": 1.52e5, "Renilla normaliser, rep 1": 6914, "call": "inactive"}
{"Gene": "MED14 (GeneID 38073)", "PubChem SID": "SID104188027", "E2F firefly, rep 1": 44811, "Renilla normaliser, rep 1": 2950, "call": "inactive"}
{"Gene": "CG4161 (GeneID 34907)", "PubChem SID": "SID104181722", "E2F firefly, rep 1": 1.05e5, "Renilla normaliser, rep 1": 4661, "call": "inactive"}
{"Gene": "CG3386 (GeneID 38081)", "PubChem SID": "SID104188358", "E2F firefly, rep 1": 99760, "Renilla normaliser, rep 1": 4221, "call": "inactive"}
{"Gene": "Ir56a (GeneID 246471)", "PubChem SID": "SID104185568", "E2F firefly, rep 1": 1.75e5, "Renilla normaliser, rep 1": 7306, "call": "inactive"}

Copied from the entries so far (2 entries):
{"Gene": "ASPP (GeneID 37422)", "PubChem SID": "SID104184097", "E2F firefly, rep 1": 75472, "Renilla normaliser, rep 1": 3841, "call": "inactive"}
{"Gene": "CG30384 (GeneID 246584)", "PubChem SID": "SID104185824", "E2F firefly, rep 1": 1.56e5, "Renilla normaliser, rep 1": 5070, "call": "inactive"}

More entries:
{"Gene": "CG32191 (GeneID 317903)", "PubChem SID": "SID104190314", "E2F firefly, rep 1": 1.74e5, "Renilla normaliser, rep 1": 9008, "call": "inactive"}
{"Gene": "Fibp (GeneID 40163)", "PubChem SID": "SID104190823", "E2F firefly, rep 1": 68658, "Renilla normaliser, rep 1": 3968, "call": "inactive"}
{"Gene": "PMCA (GeneID 43787)", "PubChem SID": "SID104196905", "E2F firefly, rep 1": 87563, "Renilla normaliser, rep 1": 2296, "call": "inactive"}
{"Gene": "PMCA (GeneID 43787)", "PubChem SID": "SID104196906", "E2F firefly, rep 1": 86537, "Renilla normaliser, rep 1": 2854, "call": "inactive"}
{"Gene": "PMCA (GeneID 43787)", "PubChem SID": "SID104196946", "E2F firefly, rep 1": 1748, "Renilla normaliser, rep 1": 960, "call": "inactive"}
{"Gene": "CG43999 (GeneID 42827)", "PubChem SID": "SID104194397", "E2F firefly, rep 1": 1.18e5, "Renilla normaliser, rep 1": 6103, "call": "inactive"}
{"Gene": "CG13186 (GeneID 36294)", "PubChem SID": "SID104186103", "E2F firefly, rep 1": 84872, "Renilla normaliser, rep 1": 3949, "call": "inactive"}
{"Gene": "sPLA2 (GeneID 35665)", "PubChem SID": "SID104185833", "E2F firefly, rep 1": 1.45e5, "Renilla normaliser, rep 1": 4731, "call": "inactive"}
{"Gene": "CG15468 (GeneID 31426)", "PubChem SID": "SID104197843", "E2F firefly, rep 1": 1.04e5, "Renilla normaliser, rep 1": 5159, "call": "inactive"}
{"Gene": "CG17721 (GeneID 41354)", "PubChem SID": "SID104195045", "E2F firefly, rep 1": 1.43e5, "Renilla normaliser, rep 1": 6130, "call": "inactive"}
{"Gene": "SCCRO (GeneID 39685)", "PubChem SID": "SID104190636", "E2F firefly, rep 1": 1.57e5, "Renilla normaliser, rep 1": 7603, "call": "inactive"}
{"Gene": "CG31086 + CG31323", "PubChem SID": "SID104194694", "E2F firefly, rep 1": 96159, "Renilla normaliser, rep 1": 4946, "call": "inactive"}
{"Gene": "kcc (GeneID 37800)", "PubChem SID": "SID104184108", "E2F firefly, rep 1": 85558, "Renilla normaliser, rep 1": 3645, "call": "inactive"}
{"Gene": "kcc (GeneID 37800)", "PubChem SID": "SID104184308", "E2F firefly, rep 1": 1.09e5, "Renilla normaliser, rep 1": 4695, "call": "inactive"}
{"Gene": "CG14445 (GeneID 31556)", "PubChem SID": "SID104197730", "E2F firefly, rep 1": 96977, "Renilla normaliser, rep 1": 5511, "call": "inactive"}
{"Gene": "CG13510 (GeneID 37596)", "PubChem SID": "SID104183944", "E2F firefly, rep 1": 1.14e5, "Renilla normaliser, rep 1": 4707, "call": "inactive"}
